According to paper PMC4339890 (Nature Communications, 2015):
No constants are given. Whether binding was seen depends on the method and setting. Binding seen in cells or lysates may run through a third protein.

Chains of the proteins cited; added tags and fusions are not shown. Lines headed by an entry give the natural chain unless they say otherwise; changes in a name come on top. A line that says so, or that is headed by a name, gives the form on record, which may keep a tag or linker. Residues count along the entry.
UniProt Q9BUH6: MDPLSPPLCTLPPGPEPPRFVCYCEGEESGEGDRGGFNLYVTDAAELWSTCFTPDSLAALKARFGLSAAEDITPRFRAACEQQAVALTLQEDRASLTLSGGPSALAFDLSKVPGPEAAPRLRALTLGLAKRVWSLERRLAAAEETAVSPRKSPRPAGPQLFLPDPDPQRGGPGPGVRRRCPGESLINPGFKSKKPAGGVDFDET
PAXX deletion mutant AA 1–170: residues 1-170 of Q9BUH6
PAXX IN186–187AA (Q9BUH6, form named): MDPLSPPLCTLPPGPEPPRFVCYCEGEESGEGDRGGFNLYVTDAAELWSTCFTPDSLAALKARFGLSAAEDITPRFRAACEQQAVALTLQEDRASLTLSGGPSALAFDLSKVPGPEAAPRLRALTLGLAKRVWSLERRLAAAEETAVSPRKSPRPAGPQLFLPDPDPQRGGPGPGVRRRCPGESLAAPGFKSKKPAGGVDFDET
PAXX RRR177–179AAA (Q9BUH6, form named): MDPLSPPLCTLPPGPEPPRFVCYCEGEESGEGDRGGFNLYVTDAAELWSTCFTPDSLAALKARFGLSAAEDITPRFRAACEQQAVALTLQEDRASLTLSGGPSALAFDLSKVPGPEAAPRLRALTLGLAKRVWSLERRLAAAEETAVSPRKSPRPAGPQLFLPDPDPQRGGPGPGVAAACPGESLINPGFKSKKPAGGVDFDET
UniProt Q13426: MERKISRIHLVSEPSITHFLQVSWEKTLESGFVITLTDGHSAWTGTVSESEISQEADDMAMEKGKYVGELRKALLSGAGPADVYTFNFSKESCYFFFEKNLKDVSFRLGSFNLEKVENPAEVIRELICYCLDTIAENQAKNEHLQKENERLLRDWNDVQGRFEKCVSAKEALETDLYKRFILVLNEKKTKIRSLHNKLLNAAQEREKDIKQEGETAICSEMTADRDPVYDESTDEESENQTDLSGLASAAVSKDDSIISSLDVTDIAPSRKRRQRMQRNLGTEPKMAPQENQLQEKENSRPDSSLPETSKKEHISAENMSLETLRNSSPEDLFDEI

Tests used:
Experiment in all cases: co-IP; Flag-tagged bait expressed in HEK293 cells; anti-Flag M2 agarose; immunoblot of the endogenous partners; Fig. 1c with washes at different sodium concentrations; Fig. 5a with or without ethidium bromide added to the lysate
[1] = molecular target: PAXX deletion mutant AA 1–170 (human) (UniProt Q9BUH6)
[2] = molecular target: PAXX IN186–187AA (human) (UniProt Q9BUH6)
[3] = molecular target: PAXX F201A (expressed in HEK293) (human) (UniProt Q9BUH6)
[4] = molecular target: PAXX RRR177–179AAA (human) (UniProt Q9BUH6)

binding [1]: no binding | binding [2]: no binding | binding [3]: no binding | binding [4]: no binding
Substance: XRCC4, endogenous (from UniProt Q13426 1-336)
